Drawing on PMC10193966, “Structure of WNT inhibitor adenomatosis polyposis coli down-regulated 1 (APCDD1), a cell-surface lipid-binding protein” (Proceedings of the National Academy of Sciences of the …, 2023), this text covers binding for one molecule.

The chains behind the UniProt entries cited, without tags or fusion partners. Residues count along the entry.
UniProt Q3U128, residues 27-492: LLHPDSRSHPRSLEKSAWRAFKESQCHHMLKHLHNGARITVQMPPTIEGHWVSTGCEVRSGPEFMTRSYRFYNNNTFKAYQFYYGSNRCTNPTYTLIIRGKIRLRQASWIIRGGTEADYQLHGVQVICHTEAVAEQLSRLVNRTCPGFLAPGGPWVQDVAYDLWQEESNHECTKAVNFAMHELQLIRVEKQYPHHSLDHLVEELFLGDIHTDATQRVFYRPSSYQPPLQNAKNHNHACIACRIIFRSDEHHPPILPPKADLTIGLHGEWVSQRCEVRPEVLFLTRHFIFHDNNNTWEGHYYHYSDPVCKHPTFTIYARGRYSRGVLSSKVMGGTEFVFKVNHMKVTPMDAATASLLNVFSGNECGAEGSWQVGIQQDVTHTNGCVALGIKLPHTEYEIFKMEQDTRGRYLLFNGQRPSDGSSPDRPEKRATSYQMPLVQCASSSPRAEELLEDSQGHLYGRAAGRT

This experiment addresses APCDD1-mVenus fusion with a biotinylated C-terminal Avi tag (APCDD1-mV-Avi) (mouse) (UniProt Q3U128). Nature of the experiment: AP-based binding assay (plate capture of a co-expressed complex); WNT7A co-expressed with the biotinylated bait in HEK293T; secreted complexes concentrated by IMAC, immobilised on streptavidin-coated wells at 4 °C overnight; captured WNT7A detected with anti-ALFA nanobody-AP and a colorimetric AP reaction; wash buffer 10 mM HEPES pH 7.5, 0.15 M NaCl, 0.05% Tween-20; also run with 1% DDM, 0.1% DDM or 2.25% Triton X-114 in all steps.

These are yes or no findings as the source states them, for the method shown. Some entries that bind do so weakly or less than the wild type. Tags and fused reporters may be left off the sequences shown.

B1: ALFA epitope-tagged WNT7A (ligand, UniProt O00755 32-349)
chain: LGASIICNKIPGLAPRQRAICQSRPDAIIVIGEGSQMGLDECQFQFRNGRWNCSALGERTVFGKELKVGSREAAFTYAIIAAGVAHAITAACTQGNLSDCGCDKEKQGQYHRDEGWKWGGCSADIRYGIGFAKVFVDAREIKQNARTLMNLHNNEAGRKILEENMKLECKCHGVSGSCTTKTCWTTLPQFRELGYVLKDKYNEAVHVEPVRASRNKRPTFLKIKKPLSYRKPMDTDLVYIEKSPNYCEEDPVTGSVGTQGRACNKTAPQASGCDLMCCGRGYNTHQYARVWQCNCKFHWCCYVKCNTCSERTEMYTCK
modifications: covalently linked palmitoleate (PAM)
In the case of B1, the binding entry is “binds”.
